From publication PMC10605378
Results are given in words; binding and its absence hold for the method and conditions named. In cells and extracts the contact can be indirect. Some binding calls cover weakened binding; strength is not graded here.

Protein sequences, listed by entry. Tags and fused reporters are not part of them.
UniProt P06537: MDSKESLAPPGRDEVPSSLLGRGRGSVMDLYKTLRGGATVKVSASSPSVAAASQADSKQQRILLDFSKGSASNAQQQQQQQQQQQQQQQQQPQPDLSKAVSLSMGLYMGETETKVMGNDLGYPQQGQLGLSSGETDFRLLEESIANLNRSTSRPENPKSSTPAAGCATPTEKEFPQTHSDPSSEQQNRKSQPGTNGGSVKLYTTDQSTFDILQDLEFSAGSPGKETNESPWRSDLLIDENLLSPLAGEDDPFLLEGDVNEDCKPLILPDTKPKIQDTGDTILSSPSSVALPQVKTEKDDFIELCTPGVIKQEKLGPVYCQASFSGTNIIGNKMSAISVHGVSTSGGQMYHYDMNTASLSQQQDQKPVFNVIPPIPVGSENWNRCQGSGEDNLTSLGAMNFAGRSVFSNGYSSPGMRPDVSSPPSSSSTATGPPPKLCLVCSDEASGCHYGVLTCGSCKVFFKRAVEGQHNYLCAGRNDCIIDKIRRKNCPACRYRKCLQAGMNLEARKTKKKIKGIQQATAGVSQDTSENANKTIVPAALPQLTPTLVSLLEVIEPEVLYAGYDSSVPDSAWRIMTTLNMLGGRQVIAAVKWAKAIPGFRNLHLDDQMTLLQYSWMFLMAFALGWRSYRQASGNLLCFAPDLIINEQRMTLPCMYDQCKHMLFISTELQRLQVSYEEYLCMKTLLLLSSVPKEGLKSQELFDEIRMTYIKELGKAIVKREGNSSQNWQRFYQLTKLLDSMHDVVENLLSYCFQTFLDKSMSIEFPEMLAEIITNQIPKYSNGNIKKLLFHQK

Columns and labels:
[1] = target: glucocorticoid receptor (not stated (endogenous in osteoblasts; mouse MC3T3 and human hFOB1.19 lines were cultured)) (UniProt P06537); assay: condition: only cells treated with VX680 (with dexamethasone); co-IP; osteoblasts treated with dexamethasone in combination with the aurora kinase inhibitor VX680 for 24 h; co-immunoprecipitation followed by immunoblotting with antibodies to aurora A or the glucocorticoid receptor
[2] = target: glucocorticoid receptor (not stated (endogenous in osteoblasts; mouse MC3T3 and human hFOB1.19 lines were cultured)) (UniProt P06537); assay: co-IP; osteoblasts treated with dexamethasone for 24 h; co-immunoprecipitation followed by immunoblotting with antibodies to aurora A or the glucocorticoid receptor

B1: aurora kinase A (enzyme, UniProt P97477 1-395)
chain: MDRCKENCVSRPVKTTVPFGPKRVLVTEQIPSQNLGSASSGQAQRVLCPSNSQRVPSQAQKLGAGQKPAPKQLPAASVPRPVSRLNNPQKNEQPAASGNDSEKEQASLQKTEDTKKRQWTLEDFDIGRPLGKGKFGNVYLARERQSKFILALKVLFKTQLEKANVEHQLRREVEIQSHLRHPNILRLYGYFHDATRVYLILEYAPLGTVYRELQKLSKFDEQRTATYITELANALSYCHSKRVIHRDIKPENLLLGSNGELKIADFGWSVHAPSSRRTTMCGTLDYLPPEMIEGRMHDEKVDLWSLGVLCYEFLVGMPPFEAHTYQETYRRISRVEFTFPDFVTEGARDLISRLLKHNASQRLTLAEVLEHPWIKANSSKPPTGHTSKEPTSKSS
With B1 the binding [1] was “no binding” and the binding [2] was “binds”.
